From paper PMC10163288
The other results are listed elsewhere or left out.

B1: il2ra_site2_2erj_normal_mot_HHH_b1_05219_af2_000000227_0001_20_36_H_._76ac4eab7cc9a0b615a4d3e84633f487_0001_af2_0001_0000700039_0000001_0 (protein)
chain: DEELHVLFAAASALNDPELQRKVLELAEAFSNGEVPPEEVERIARELVRELGNEERLERIEKLAR
B2: il2ra_site1_3nfp_normal_mot_ems_3hC_775_af2_000000149_0001_42_60_H_._HEEHE_1486_af2_0001_0000300018_0000001_0 (protein)
chain: DTEESVEEAARLIAELAGVPSWEVEVHNGEVHVHLEGTDSQARHAARLIEFAARKFGVPVHVEVE
B3: il2ra_site1_3nfp_sap_8_mot_HHH_b1_03420_af2_000000029_0001_41_57_H_._ems_3hC_894_0001_af2_0001_0000200010_0000001_0_0001 (protein)
chain: DEEMQARAIAKLLKRAAGVESVEVEVENNEIEVTFKGNDEAVRRAAEAVRKLAKMLGIPVEIEVE
B4: il2ra_site1_2b5i_normal_mot_HHH_b2_06044_000000134_0001_1_20_H_._HHH_b2_07763_af2_0001_0000300031_0000001_1_af2pred_dldesign_0_af2pred (protein)
chain: SSSSSEKEEKVYDLYNKALKLFKEGKKEEAKELLEEALKLAEELGSEKIAAELKRLLELLSSSSS
B5: il2ra_site1_3nfp_normal_mot_HHH_b1_05523_000000027_0001_1_19_H_._HHH_b2_00888_af2_0001_0000100003_0000001_0 (protein)
chain: SSSTDETERLLREVYEALKEAEERGDEELLKEILEEAERLAEELNDENLVRAIRFLLRALESSSS
B6: il2ra_site1_1z92_sap_12_mot_HHH_b2_03658_000000138_0001_39_56_H_._HHH_b2_00767_0001_0000900047_0000001_0_0001_af2pred_0001_af2pred (protein)
chain: SLLEELEELLEKLNTPVAKSLIRLLRFALEKGDADPEDILKDLLHAARALNDPEVQEVIEEILRK
B7: il2ra_site1_2b5i_normal_mot_HHH_b1_02271_000000068_0001_1_16_H_._HHH_b2_07355_af2_0001_0000100001_0000001_0_af2pred_dldesign_0_af2pred (protein)
chain: SSSSSSRRELLEELNKLYKELGEKGHDEAMDEVDELYRRALLENDPRLLEEAIKLAKEVLSSSSS
B8: il2ra_site1_3nfp_normal_mot_HHH_b1_01159_af2_000000075_0001_1_20_H_._HHH_b2_02821_0001_0000200006_0000001_0_af2pred_0001_af2pred (protein)
chain: SSSSDEREELRRLLEEVAEAAREGNEEELERLLEEALKLAQENNDKSARRFLESLLKQVSSSSSS
B9: il2ra_site2_2erj_sap_22_mot_HHH_b2_08311_000000155_0001_42_56_H_._HHH_b1_06235_af2_0001_0000100002_0000001_0_0001 (protein)
chain: SSSSSTSVELALEMAEELAERGNKASLEFALRYLELNRKQTNTDEVREAYRIVEELLEELSSSSS
B10: il2ra_site1_2b5i_sap_14_mot_HHH_b1_01804_af2_000000230_0001_22_38_H_._2fe55654ba661275baf09010e83dfa6f_0001_1_0001_0000700061_0000001_0_0001_af2pred_dldesign_0_ … (protein)
chain: SSSSSPEREKAEELIEKAKELYEAGKRREALKTLEEAYKIAAAAEDDELLDRIEELAKKISSSSS
B11: il2ra_site1_2b5i_normal_mot_HHH_b1_06428_000000224_0001_1_17_H_._HHH_b2_02396_0001_0000400030_0000001_0_af2pred_dldesign_0_af2pred (protein)
chain: SSSSSSSSSRALIAALEEARRAGDREAARELAERLLEEAKKRNSKNLIKLAEQALEELSSSSSSS
B12: il2ra_site2_3nfp_sap_27_mot_HHH_b2_08086_000000129_0001_21_37_H_._HHH_b1_02974_0001_0000200015_0000001_1_0001 (protein)
chain: SSSSSSDELEELQREIERAEEEGDRNEVAQLLLELTELAAENNDEEAAEFVLEVYAELRSSSSSS
B13: il2ra_site2_2erj_sap_15_mot_HHH_b2_08311_000000155_0001_42_56_H_._HHH_b2_07560_0001_0000300016_0000001_0_0001 (protein)
chain: SPEYEEILREAEEIVEEALKKNDEEKLLEAASLVIEAARKFLDDEEAFKRIREVFTRIAREREKS
B14: il2ra_site2_3nfp_normal_mot_HHH_b1_00660_af2_000000199_0001_40_57_H_._HHH_b1_06222_0001_0000100003_0000001_0 (protein)
chain: SSSSDKEEERLEELLKELEKAVREGDEELVRRIAAEVLHLAFEANDHEVFARIAELLLEFLSSSS
B15: il2ra_site2_3nfp_sap_11_mot_HHH_b1_00882_af2_000000293_0001_1_18_H_._HHH_b1_01194_af2_0001_0000300012_0000001_0_0001 (protein)
chain: SSSSSSSLYELLQEAVEAAKNGNPEEAKEILEQALEEAREAGDEEAEHFIEWFIKAVRSSSSSSS
B16: il2ra_site1_1z92_normal_mot_HHH_b1_03515_000000289_0001_1_19_H_._HHH_b1_04203_af2_0001_0000100008_0000001_0 (protein)
chain: SSSSSRLERSLKIAVRVAVRVAGLSEEEQEELEELAEELARRGIDALEAIKILDRRAAELDSSSS
B17: il2ra_site1_3nfp_normal_mot_HHH_b2_02053_000000240_0001_1_20_H_._8b3018496bece20695a4731cc719293d_0001_1_af2_0001_0000300015_0000001_0_af2pred_0001_af2pred_1_sw … (protein)
chain: GPRAAKRLVRLALEENSPKALRRILEDAERTLGDPEEAEELLSRLIAEVLKVPPEEARKIVEEVK
B18: il2ra_site2_3nfp_sap_15_mot_HHH_b1_04032_000000208_0001_43_56_H_._HHH_b1_03115_af2_0001_0000200007_0000001_0_0001 (protein)
chain: SSSSSDEREFERAVKSALEFAKQIEDEELRRSALEWAEAVAIMGNNPELQELVEKVKEELSSSSS
B19: il2ra_site2_3nfp_normal_mot_HHH_b2_02437_000000052_0001_42_56_H_._HHH_b1_03056_0001_0000100006_0000001_0_af2pred_0001_af2pred (protein)
chain: SSSSSSSEEEEQIEELLERAEHTEDEFRRFALLADALFLALKARDPELERRVREVAAKLSSSSSS
B20: il2ra_site1_3nfp_sap_14_mot_0eddeacbb14b769e73e254714f31e2f9_0001_af2_000000052_0001_37_51_H_._HHH_b2_07712_af2_0001_0000100003_0000001_0_0001 (protein)
chain: DEEVEELIEELRKRDLQLAILLKIVVEAIKRIGNPEAEELLREAIELIKEGNPEEAKRVLREAVK
B21: il2ra_site1_3nfp_normal_mot_HHH_b1_00630_af2_000000193_0001_42_55_H_._HHH_b2_03971_0001_0000200010_0000001_0 (protein)
chain: SSSSTEELHHLAKLVHEAYKALSEGNEEEVRELLEEARRLAEELNDKVARRLLEEIEKRLSSSSS
B22: il2ra_site2_3nfp_sap_15_mot_HHH_b2_04230_000000235_0001_39_52_H_._ems_p1-15H-GBL-16H-GABBL-16H_0382_0001_0001_0001_0001_0000300021_0000001_0_0001_af2pred_0001_a … (protein)
chain: SSSSSDREFRHIVESALRFAKLSEDEELRRIALDFARAVAQMGNDPELEREVEEVEEELSSSSSS
B23: il2ra_site1_1z92_sap_9_mot_HHH_b1_04604_af2_000000029_0001_42_56_H_._3020bb65e3c0c4c1750efda2a61ed53f_0001_1_af2_0001_0000300015_0000001_0_0001 (protein)
chain: SEEYLEEQLRRKLELGNIEDAARALFKFIAAAAGDPEQAEEFLEELLKRAGVPPEVIEKILEEAK
B24: il2ra_site2_3nfp_sap_15_mot_HHH_b1_02990_000000128_0001_41_58_H_._HHH_b1_03794_0001_0000400021_0000001_0_0001 (protein)
chain: SEAEEIIKLIAELLGTPPERVRERVEDAAEIVNRPPEEAAAYLLAQVALELGDPELEKEAKRLSR

biological target: il2ra, P01589; assay: yeast display titration

Apparent Kd, inactive:
B1 no binding seen, B2 no binding seen, B3 no binding seen, B4 no binding seen, B5 no binding seen, B6 no binding seen, B7 no binding seen, B8 no binding seen, B9 > 2260 nM, B10 no binding seen, B11 no binding seen, B12 no binding seen, B13 no binding seen, B14 no binding seen, B15 no binding seen, B16 no binding seen, B17 > 424 nM, B18 no binding seen, B19 no binding seen, B20 no binding seen, B21 no binding seen, B22 no binding seen, B23 no binding seen, B24 no binding seen
